From ChEMBL document CHEMBL3988442, “University of Dundee, Small-Polar-MMV Screening Library” (2021).

Sequences of proteins named here, by UniProt entry; tags and fusion partners are left off.
UniProt E9BF75, entry or part of it: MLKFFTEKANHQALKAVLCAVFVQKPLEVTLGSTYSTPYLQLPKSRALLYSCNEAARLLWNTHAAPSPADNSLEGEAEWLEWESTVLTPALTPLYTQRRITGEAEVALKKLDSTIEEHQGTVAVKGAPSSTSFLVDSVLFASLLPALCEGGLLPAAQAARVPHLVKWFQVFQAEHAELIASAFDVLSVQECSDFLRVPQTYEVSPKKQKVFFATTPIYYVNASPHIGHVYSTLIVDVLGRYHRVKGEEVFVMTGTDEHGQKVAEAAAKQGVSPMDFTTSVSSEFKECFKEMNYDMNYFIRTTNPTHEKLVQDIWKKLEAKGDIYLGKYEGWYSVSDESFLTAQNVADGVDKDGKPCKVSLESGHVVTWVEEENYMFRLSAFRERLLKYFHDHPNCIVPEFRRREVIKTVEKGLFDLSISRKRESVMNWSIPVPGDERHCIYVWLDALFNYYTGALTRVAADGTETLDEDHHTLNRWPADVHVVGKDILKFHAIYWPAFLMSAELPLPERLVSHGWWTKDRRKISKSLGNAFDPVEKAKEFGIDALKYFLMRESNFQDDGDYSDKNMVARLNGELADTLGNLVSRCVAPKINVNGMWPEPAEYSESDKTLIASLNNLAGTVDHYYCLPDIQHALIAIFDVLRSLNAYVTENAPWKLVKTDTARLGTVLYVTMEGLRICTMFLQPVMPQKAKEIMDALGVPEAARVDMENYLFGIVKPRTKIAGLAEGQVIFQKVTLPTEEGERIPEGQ

All values are in %. The record does not define 0% and 100%; most values in the screen are far below 50% and negative numbers occur (in some assays of this library far below -100). Compounds were drawn at random from those tested, without regard to their results. A dash means the value is not listed here; it may have been measured.

Mtb heat-shock: 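Assay on Mycobacterium tuberculosis, filed only as a heat shock assay from Cornell; the read-out is not stated. The concentration is filed as 10 mM, unlikely as a test dose, so the dose is not known. Direction is inferred from retests: higher values go with stronger inhibition. About 69,000 compounds were tested under these conditions; 1.4% (about 930) showed 50% or more at least once.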
LdMetRS: 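Methionyl-tRNA synthetase (putative), Leishmania donovani (UniProt E9BF75). Primary screen of methionyl-tRNA synthetase; the read-out is not stated. The test concentration is not given. Values are per cent inhibition. Of about 68,000 compounds tested this way, about 24 (0.035%) reached 50% or more in at least one test.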
Mtb growth Cornell: 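Whole-cell assay for inhibitors of Mycobacterium tuberculosis growth, labelled Cornell in the record; the read-out is not stated. The concentration is filed as 10 mM, unlikely as a test dose, so the dose is not known. Higher means stronger inhibition (inferred from two other growth screens of the library). Size under these conditions: about 53,000 compounds, about 900 of them at 50% or above in at least one test.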

SMILES: [H][C@@]12CCNC[C@]1([H])N(C(=O)C1CCCCC1)C2
Mtb heat-shock: -6.03%

SMILES: CCc1ccc(NC(=O)N2C[C@H]3C[C@H](C(=O)N4CCCC4)[C@@H](C2)O3)cc1
LdMetRS: 2.747%

SMILES: CCc1cc(N(C)Cc2ccno2)n2nc(C)c(C)c2n1
Mtb heat-shock: 27.53%
LdMetRS: 12.28%
Mtb growth Cornell: 28.15%

SMILES: O=C1NC(=O)c2c3c(nc(O)c21)CCCC3
Mtb heat-shock: -11%
LdMetRS: -5.135%
Mtb growth Cornell: -5.771%

SMILES: COc1ccc(Cl)cc1C(=O)N1C[C@H](C(C)C)[C@@H](N)C1
Mtb heat-shock: 8.568%
LdMetRS: 19.05%
Mtb growth Cornell: -5.213%

SMILES: Cc1ccc(N2CCCC(NCc3ccc4c(c3)OCCO4)C2)nn1 (centres undefined)
Mtb heat-shock: -12.2%
LdMetRS: 17.48%

SMILES: CO[C@@H]1CCN(Cc2nccs2)C[C@@H]1Cc1ccccc1.O=C(O)C(F)(F)F
Mtb heat-shock: 3.186%
Mtb growth Cornell: 17.77%

SMILES: O=C1N(CC2CCCCC2)CCCC1(O)CN1CCc2[nH]ncc2C1 (centres undefined)
Mtb heat-shock: 4.009%
LdMetRS: 13.17%
Mtb growth Cornell: 13.08%

SMILES: COCCN1C[C@@H](C)[C@@]2(COCCN(C(=O)Cc3ccccc3)C2)C1
LdMetRS: 9.623%

SMILES: Cc1nc[nH]c1CN1C[C@@H]2CC[C@H](C1)N(C(=O)CCn1cncn1)C2
LdMetRS: 13.31%

SMILES: CCCc1cc(C(=O)N2CCCC(n3ccnc3C)C2)[nH]n1 (centres undefined)
Mtb heat-shock: 16.41%
LdMetRS: 9.859%
Mtb growth Cornell: 22.73%

SMILES: CN(CC(=O)N1CCCC1)C(=O)c1cccn1CCc1ccccc1
Mtb heat-shock: 2.567%
LdMetRS: 12.71%

SMILES: CC(C)NC(=O)N1CCc2c(CNc3ncccn3)cncc2C1
LdMetRS: 14.81%

SMILES: Cc1ccccc1C(=O)N1CC[C@@H]2CN(c3ncccn3)CCO[C@@H]2C1
LdMetRS: 11.44%

SMILES: O=C(N[C@H]1CN(Cc2ccsc2)[C@@H]2CCCO[C@H]12)C1CC1
LdMetRS: 5.449%

SMILES: CCN1C(=O)CCCC12CCCN(C(=O)c1cc(C)oc1C)C2 (centres undefined)
Mtb heat-shock: 14.1%
LdMetRS: 10.08%
Mtb growth Cornell: 19.66%

SMILES: CCCc1n[nH]c(C2CN(Cc3ncc[nH]3)CCO2)n1 (centres undefined)
Mtb heat-shock: 16.42%
LdMetRS: 8.681%
Mtb growth Cornell: -3.046%

SMILES: CSCCCNc1nccc(-c2cc(C(=O)O)ccn2)n1
Mtb heat-shock: 9.201%
LdMetRS: 11.73%

SMILES: CCN(Cc1nc(COC)no1)Cc1ccccc1OCC(=O)O
Mtb heat-shock: -17.6%
LdMetRS: 7.829%
Mtb growth Cornell: -19.31%

SMILES: c1cncc(COC[C@@H]2CCC[C@]23CNCCO3)c1
LdMetRS: 17.05%

SMILES: Cc1ccc(C(=O)N2C[C@@H](NS(C)(=O)=O)[C@H](C(C)C)C2)cc1O
Mtb heat-shock: -17.3%
LdMetRS: 10.88%
Mtb growth Cornell: -0.6974%

SMILES: CCCN1CCC(CNC(=O)C2(c3ccccc3)CCC2)C1 (centres undefined)
Mtb heat-shock: -16.28%
LdMetRS: 0.2793%
Mtb growth Cornell: 7.695%

The first 2 entries again:

| SMILES | Mtb heat-shock | LdMetRS | Mtb growth Cornell |
|---|---|---|---|
| `[H][C@@]12CCNC[C@]1([H])N(C(=O)C1CCCCC1)C2` | -6.03% | - | - |
| `CCc1ccc(NC(=O)N2C[C@H]3C[C@H](C(=O)N4CCCC4)[C@@H](C2)O3)cc1` | - | 2.747% | - |